A short description of the assay: RPL19A-GFP modulators, yeast TOR pathway, confirmation, cell-based, S. cerevisiae, flow cytometry, cherry picks, mother/daughter gates (AID 2270). The settings on record: S. cerevisiae RPL19A-GFP strain, 3 h, at 10 µM, stronger effect = lower value, 100 = same GFP as DMSO wells. On the technique in general: In flow cytometry, cells or beads pass a laser one at a time.
Where [1] appears, read: measured here: daughter cell gate.
The mark [2] stands for this setting: measured here: mother cell gate.

The other results are listed elsewhere or left out.

As for `C[N+]1=C2C=CC=CC=C2SC12C([N+](=O)[O-])=CC([N+](=O)[O-])=C[C-]2[N+](=O)[O-]` (stereo unspecified), the GFP response vs DMSO stood at 102% under setting [1] and 95.2% under setting [2].

Take `CCOP(=O)(Nc1cccc2ccccc12)OCC`: the GFP response vs DMSO is 97.9% under setting [1] and 98.8% under setting [2].

Turning to `O=P(Nc1nccs1)(c1ccccc1)c1nc2ccccc2s1` (stereo unspecified), the GFP response vs DMSO is, setting by setting: under setting [1], 98%; under setting [2], 99.2%.

For the origin of these results see PubChem BioAssay AID2270 (NMMLSC, 2010).
